Laboratory results as given in patent US7932051B2, “Blood and urine test” (R-Biopharm AG, priority 2003, dated 2011).
Where two headings read alike, the source gives them in different places.

Tested on: microbial inhibition test (Premi®Test)
Conditions: read after 3-4 hours
[1] = Bovine urine without drug residues, 1 mg/100 μl
[2] = Pig urine without drug residues, 1 mg/100 μl

SMILES | Amount of false positive results (%) [1] [%] | Amount of false positive results (%) (Bovine urine without drug residues, 2 mg/100 μl) | Amount of false positive results (%) [2] [%] | Amount of false positive results (%) (Pig urine without drug residues, 2 mg/100 μl)
CC(=O)[O-].CC(=O)[O-].[Ca+2] [Ca(CH3COO)2, Calcium Acetate] | 20 | 4 | 0 | 12
[Ca+2].[Cl-].[Cl-] [CaCl2, Calcium Chloride] | 12 | – | 11 | –
